Laboratory results taken from patent publication US20130177572A1.
No constants are given. Whether binding was seen depends on the method and setting. Some entries that bind do so weakly or less than the wild type.

The chains behind the UniProt entries cited, without tags or fusion partners. Where a name states a change or a piece, a line headed by the entry shows the natural chain unless it says otherwise. Residues count along the entry.
UniProt P05622, residues 32-530: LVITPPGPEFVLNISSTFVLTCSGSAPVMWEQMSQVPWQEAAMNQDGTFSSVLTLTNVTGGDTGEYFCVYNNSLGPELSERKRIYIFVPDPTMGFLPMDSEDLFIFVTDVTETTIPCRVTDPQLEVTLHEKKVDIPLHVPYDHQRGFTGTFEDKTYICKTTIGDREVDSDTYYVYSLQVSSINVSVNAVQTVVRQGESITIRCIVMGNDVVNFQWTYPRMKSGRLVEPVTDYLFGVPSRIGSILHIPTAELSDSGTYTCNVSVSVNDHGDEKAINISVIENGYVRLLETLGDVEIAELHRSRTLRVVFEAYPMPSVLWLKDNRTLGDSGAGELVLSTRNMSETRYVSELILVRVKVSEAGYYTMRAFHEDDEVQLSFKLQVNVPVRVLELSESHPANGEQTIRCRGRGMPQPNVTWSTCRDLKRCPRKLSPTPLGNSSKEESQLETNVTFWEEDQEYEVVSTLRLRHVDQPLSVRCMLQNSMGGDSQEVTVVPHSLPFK

Key:
[1] = target: mouse PDGFR-hIgG1-Fc chimeric fusion protein (mouse; human) (UniProt P05622); assay: SPR (Biacore T100), PDGFR-Fc captured by anti-hIgG1 Fc
[2] = target: human PDGFR-hIgG1-Fc chimeric fusion protein (human) (UniProt P09619); assay: as above

binding [1]: binds
binding [2]: binds
B1: XB2708 VH domain (protein)
VH: QVQLVQSGGGVVQPGGSLRLSCAASGFTSRSYGMHWVRQAPGKGLEWVAFILFDGNNKYYADSVKGRFTISSDNSKNTLYLQMNSLRAEDTAVYYCATHGGDRSYWGQGTLVTVSS
